Results: patent publication US20240161653A1, “IN VITRO MODEL DEVICE FOR PLACENTAL BARRIER” (CFD Research Corporation, priority 2022, published 2024)
At least one structure is not confirmed: it was looked up by name or label, or the drawing left a doubt.

Tested on: Bewo 30 placental cytotrophoblast cell line
Test: Syncytialization assessed on chip by ICC staining of E-cadherin
Assay type: cell-based, human
Settings: after 96 hours in culture, FIG. 6

Structure (SMILES): C=C[C@@]1(C)CC(=O)[C@]2(O)[C@@]3(C)[C@@H](O)CCC(C)(C)[C@@H]3[C@H](O)[C@H](OC(C)=O)[C@@]2(C)O1 [forskolin]
- E-cadherin expression in treated cultures versus control: decreased expression of E-cadherin was readily observed
